Laboratory results as given in patent publication US20180362473A1, “BIOORTHOGONAL METHODS AND COMPOUNDS” (The University Court of the University of Edinburgh, priority 2013, published 2018).
“Also recorded” adds a separate entry of the source.

Legend:
[1] = Cell-free palladium mediated deprotection of prodrugs (HPLC/LCMS); details: 37° C.; for N-depropargylation by Pd^0-resins (FIG. 17): 100 μM drug precursor, 1 mg/mL Pd^0-resins in PBS
Method: FIG. 17 illustrates the palladium-mediated reactions of the drug precursors with Pd(0) under biocompatible conditions to form either 5FU, 1, or floxuridine, 8, in the table it is compiled the conversion percentages and resulting products after incubating each of the drug precursors (100 μM) with 1 mg/mL of Pd^0 -resins in PBS for 24 h at 37° C. (Thermomixer, shaker speed: 1,400 rpm), Values were calculated by HPLC using an UV detector.
To recreate a biocompatible scenario, prodrug-into-drug conversion was carried out at 37° C. in an isotonic solution with a physiologic pH. All-5FU, Pro-5FU and Bri-5FU (500 μM) were dissolved in phosphate buffered saline (“PBS”) (0.5 ml) with 0.5 mg of Pd^0 resin and shaken at 1400 rpm and 37° C. in a Thermomixer. Reaction crudes were monitored at 0 h, 7h, 24 h and 48 h using analytical HPLC (Agilent) or LCMS system (Agilent). Eluent A: water and formic acid (0.1%); eluent B: acetonitrile, formic acid (0.1%): A/B=95:5 to 5:95 in 3 min, isocratic 1 min, 5:95 to 95:5 in 1 min, isocratic 1 min with the UV detector at 280 nm.
For All-5FU and Bn-5FU, the prodrug (100 μM) and P^0-resin (1 mg/mL, [Pd^0]˜266 μM) were dispersed in 0.1% (vlv) DM80 in PBS and incubated for 48 h at 37° C.

[2] = Confirmation of heterogeneous catalytic mechanism (HPLC)
Method: N-depropargylation of Pro-5FU using sub-stoichiometric amounts of Pd^0 confirmed the catalytic nature of the reaction with the reaction proceeding to completion in 72 h.

[3] = 100 μM prodrug, Pd^0-resin 1 mg/mL, 0.1% DMSO in PBS, 48 h

Row | Structure (SMILES) | Pd^0-mediated conversion of prodrug into 5FU [1, 3] | N-depropargylation by Pd^0-resins (FIG. 17) ([1]; 24 h) | further results
1 | O=c1[nH]c(=O)n(Cc2ccccc2)cc1F [Bn-5FU] | relatively low levels of 5FU | – | –
2 | C#CCn1c(=O)c(F)cn([C@H]2CC(O)[C@@H](CO)O2)c1=O (some centres unmarked) [Compound 11, 3-propergyl-floxuridine] | – | effected | –
3 | C=CCn1cc(F)c(=O)[nH]c1=O [All-5FU] | no significant reactivity; also recorded: relatively low levels of 5FU | – | –
4 | C#CCn1cc(F)c(=O)n(CC#C)c1=O [Compound 7, 1,3-dipropargyl-5-fluorouracil] | – | N-depropargylation at both positions | –
5 | C#CCn1c(=O)[nH]cc(F)c1=O [Compound 6] | – | N-depropargylation at the 3-position | –
6 | C#CCn1cc(F)c(=O)[nH]c1=O [Pro-5FU] | – | – | conversion in micro-filtered PBS pre-incubated with Pd^0-resins ([2]; Pro-5FU 100 μM, 48 h incubation, solids removed (0.22 μm)): unreacted Pro-5FU as major mixture component; time for N-depropargylation to proceed to completion ([2]; sub-stoichiometric amounts of Pd^0): 72 h; Pd^0-mediated conversion of prodrug into 5FU ([1]; 500 μM prodrug, 0.5 mg Pd^0 resin in PBS (0.5 ml), 1400 rpm, 24 h): completely disappeared
